Reference: doi:10.1101/2024.04.24.590897
No constants are given. Whether binding was seen depends on the method and setting. Some binding calls cover weakened binding; strength is not graded here.

Protein sequences, listed by entry. Tags and fused reporters are not part of them. Lines headed by an entry give the natural chain unless they say otherwise; changes in a name come on top. Chains listed by the source or under a name are the forms on record and can include a tag or linker.
UniProt O75475: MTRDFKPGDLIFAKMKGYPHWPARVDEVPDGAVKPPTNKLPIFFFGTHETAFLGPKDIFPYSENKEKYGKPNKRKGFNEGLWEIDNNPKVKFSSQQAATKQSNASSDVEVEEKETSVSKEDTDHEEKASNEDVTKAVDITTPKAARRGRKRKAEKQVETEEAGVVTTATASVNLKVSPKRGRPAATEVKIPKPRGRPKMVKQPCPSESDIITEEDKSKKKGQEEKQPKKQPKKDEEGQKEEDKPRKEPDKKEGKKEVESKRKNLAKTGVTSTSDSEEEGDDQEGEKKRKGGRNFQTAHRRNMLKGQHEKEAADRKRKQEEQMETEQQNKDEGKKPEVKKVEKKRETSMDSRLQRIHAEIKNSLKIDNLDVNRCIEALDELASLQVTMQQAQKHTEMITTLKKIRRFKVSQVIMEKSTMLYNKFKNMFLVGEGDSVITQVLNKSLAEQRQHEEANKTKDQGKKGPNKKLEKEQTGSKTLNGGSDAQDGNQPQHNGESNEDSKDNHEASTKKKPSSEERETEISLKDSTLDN
GST-LEDGF/p52 (O75475, form named): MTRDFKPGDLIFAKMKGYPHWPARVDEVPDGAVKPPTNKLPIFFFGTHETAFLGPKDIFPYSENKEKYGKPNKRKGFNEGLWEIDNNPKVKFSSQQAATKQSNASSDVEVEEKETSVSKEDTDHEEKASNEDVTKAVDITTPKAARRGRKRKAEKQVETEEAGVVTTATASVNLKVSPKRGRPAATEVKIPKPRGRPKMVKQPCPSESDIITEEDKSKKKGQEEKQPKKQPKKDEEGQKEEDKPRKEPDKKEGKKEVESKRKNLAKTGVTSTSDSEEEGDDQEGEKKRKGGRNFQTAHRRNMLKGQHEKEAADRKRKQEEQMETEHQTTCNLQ

Target: GST-LEDGF/p52 (UniProt O75475)
Experiment: AlphaScreen or HTRF

binding: binds
Substance: Flag-LEDGF/p75 (from UniProt O75475 1-530)
